{"source": "PubChem BioAssay AID445", "about": "(National Center for Advancing Translational Sciences (NCATS), 2006)", "assay": "IkB Signaling", "conditions": "ABC-DLBCL IkBa-CBG/CBR dual luciferase ratio (green luciferase fused to IkBa over red control in OCI-Ly3 lymphoma cells), 4 h", "outline": "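In this assay, an IκBα–CBG68 fusion accumulates when IKK-driven degradation is blocked; native CBR normalizes for cell number. OCI-Ly3 cells were treated 4 h with compound and doxycycline, then green and red light read after Chroma-Glo addition.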", "key": {"[1]": {"conditions": "measured here: control luc red channel unless noted"}}, "note": "The other results are listed elsewhere or left out. Shown are side measurements of this screen, not its main read-out; they come without a call. Most of these compounds were active or inconclusive in the main read-out, so they are no random draw. The note in brackets gives the kind of curve behind each potency; many fits are weak.", "data": [{"compound": "O=C1CN(C(=O)Cc2ccc(F)cc2)C(c2ccccc2)c2cc(Br)ccc2N1", "note": "(stereo unspecified)", "values": [{"measurement": "AC50", "setting": "[1]", "result": "12.6 µM [falling, partial curve]"}]}, {"compound": "Cc1ccc(NC(=O)CN2CCC3(O)CCCCC3C2c2ccc3c(c2)OCO3)c(C)c1", "note": "(stereo unspecified)", "values": [{"measurement": "AC50", "setting": "[1]", "result": "12.6 µM [falling, partial curve]"}]}, {"compound": "CCOC(=O)c1[nH]c(C)c(CCC(=O)Nc2c(C)cc(C)cc2C)c1C", "values": [{"measurement": "AC50", "setting": "[1]", "result": "12.6 µM [rising, partial curve]"}]}, {"compound": "CCCn1c(SCc2nc(-c3ccccc3C)no2)nnc1-c1ccc(Cl)cc1", "values": [{"measurement": "AC50", "setting": "[1]", "result": "25.1 µM [falling, partial curve]"}]}, {"compound": "COc1ccc(N2C(=O)CSC23C(=O)N(CC(=O)NC2CCCCC2)c2ccccc23)cc1", "note": "(stereo unspecified)", "values": [{"measurement": "AC50", "setting": "[1]", "result": "12.6 µM [falling, single point]"}]}, {"compound": "O=C(NCCc1c[nH]c2ccccc12)C1Cc2ccccc2CN1C(=O)c1ccco1", "note": "(stereo unspecified)", "values": [{"measurement": "AC50", "setting": "[1]", "result": "12.6 µM [falling, partial curve]"}]}, {"compound": "COc1cccc(NC(=O)Cn2c(=O)n(-c3ccc(CC(=O)NCC4CCCO4)cc3)c(=O)c3ccccc32)c1", "note": "(stereo unspecified)", "values": [{"measurement": "AC50", "setting": "[1]", "result": "10 µM [falling, partial curve, poor fit]"}]}, {"compound": "COc1cc(NC(=O)CSCc2cnn(-c3ccccc3)c2-n2cccc2)cc(OC)c1", "values": [{"measurement": "AC50", "setting": "[1]", "result": "15.8 µM [falling, partial curve]"}]}, {"compound": "Cc1cc(C)cc(NC(=O)NCCn2nnc3cc(S(=O)(=O)N(C)C)ccc32)c1", "values": [{"measurement": "AC50", "setting": "[1]", "result": "31.6 µM [falling, single point]"}]}, {"compound": "CSc1nc(C)c(C(=O)Nc2ccccc2)c(C)c1C#N", "values": [{"measurement": "AC50", "setting": "[1]", "result": "15.8 µM [falling, partial curve]"}]}, {"compound": "CCOc1ccc(C(=O)OCc2cc(=O)n3nc(C4CCCCC4)sc3n2)cc1", "values": [{"measurement": "AC50", "setting": "[1]", "result": "10 µM [falling, single point]"}]}, {"compound": "COc1ccc(C2c3c(-c4ccccc4O)n[nH]c3C(=O)N2Cc2ccco2)cc1", "note": "(stereo unspecified)", "values": [{"measurement": "AC50", "setting": "[1]", "result": "25.1 µM [falling, single point]"}]}, {"compound": "O=C(Nc1ccccc1C(=O)OCc1cc(=O)n2nc(C3CC3)sc2n1)c1cccc(Cl)c1", "values": [{"measurement": "AC50", "setting": "[1]", "result": "10 µM [falling, partial curve]"}]}, {"compound": "Cc1ccc(Cl)cc1NC(=O)Cn1c(=O)c(CNc2ccccc2)cc2cc3c(cc21)OCCO3", "values": [{"measurement": "AC50", "setting": "[1]", "result": "12.6 µM [falling, partial curve]"}]}, {"compound": "CCCCn1c(-c2ccc(S(=O)(=O)N3CCOCC3)cc2)csc1=Nc1ccccc1", "values": [{"measurement": "AC50", "setting": "[1]", "result": "3.98 µM [falling, full curve]"}]}, {"compound": "CCN(c1cccc(C)c1)S(=O)(=O)c1nnc(NC(=O)c2cccs2)s1", "values": [{"measurement": "AC50", "setting": "[1]", "result": "0.794 µM [rising, full curve]"}]}, {"compound": "O=C(CCCn1c(=O)c2cccn2c2cccnc21)NCCc1ccc(Cl)cc1", "values": [{"measurement": "AC50", "setting": "[1]", "result": "39.8 µM [falling, single point]"}]}, {"compound": "Cc1cc(Br)ccc1NC(=O)c1cc2c(s1)-c1ccccc1SC2", "values": [{"measurement": "AC50", "setting": "[1]", "result": "10 µM [falling, partial curve]"}]}, {"compound": "CCOC(=O)c1ccccc1NC(=O)CN(c1ccccc1OC)S(=O)(=O)c1ccc(C)cc1", "values": [{"measurement": "AC50", "setting": "[1]", "result": "1 µM [falling, full curve, poor fit]"}]}, {"compound": "CS(=O)(=O)N(CC(=O)N1CCN(c2ccccc2)CC1)c1cc(C(F)(F)F)ccc1Cl", "values": [{"measurement": "AC50", "setting": "[1]", "result": "10 µM [falling, partial curve]"}]}, {"compound": "COc1ccc(NS(=O)(=O)c2nnc(NC(=O)c3ccccc3F)s2)cc1", "values": [{"measurement": "AC50", "setting": "[1]", "result": "2.51 µM [rising, partial curve]"}]}, {"compound": "COc1cc(/C=C/c2nc(C#N)c(NC3CCCCC3)o2)cc(OC)c1OC", "values": [{"measurement": "AC50", "setting": "[1]", "result": "20 µM [falling, partial curve]"}]}, {"compound": "O=C(/C=C/c1cn(CC(O)CN2CCCCCC2)c2ccccc12)c1ccccc1", "note": "(stereo unspecified)", "values": [{"measurement": "AC50", "setting": "[1]", "result": "10 µM [falling, partial curve]"}]}, {"compound": "Cc1ccc(CNc2nc3c(S(=O)(=O)c4ccccc4)nnn3c3ccsc23)cc1", "values": [{"measurement": "AC50", "setting": "[1]", "result": "0.631 µM [rising, full curve]"}]}, {"compound": "Cc1ccccc1C(=O)Nc1ccc(Br)cn1", "values": [{"measurement": "AC50", "setting": "[1]", "result": "7.94 µM [falling, partial curve]"}]}, {"compound": "Cc1ccc(C)c(NC(=O)CSc2cn(CC(=O)N3CCCC3)c3ccccc23)c1", "values": [{"measurement": "AC50", "setting": "[1]", "result": "25.1 µM [falling, single point]"}]}, {"compound": "CCOc1ccccc1C1C(C(=O)Nc2ccccc2OC)=C(C)Nc2nc3ccccc3n21", "note": "(stereo unspecified)", "values": [{"measurement": "AC50", "setting": "[1]", "result": "12.6 µM [falling, partial curve]"}]}, {"compound": "Cc1ccc2nc(NC(=O)c3cc(=O)c4cc(C)c(C)cc4o3)sc2c1", "values": [{"measurement": "AC50", "setting": "[1]", "result": "3.98 µM [rising, partial curve]"}]}, {"compound": "CCc1nnc2c3ccccc3nc(N3CCN(c4ccc(C)cc4C)CC3)n12", "values": [{"measurement": "AC50", "setting": "[1]", "result": "20 µM [falling, partial curve]"}]}, {"compound": "O=C(NCCc1csc(-c2cccnc2)n1)c1cccc(C(F)(F)F)c1", "values": [{"measurement": "AC50", "setting": "[1]", "result": "39.8 µM [falling, single point]"}]}, {"compound": "COc1ccccc1CNC(=O)c1ccc(C)c(-n2cnc3cccnc32)c1", "values": [{"measurement": "AC50", "setting": "[1]", "result": "3.16 µM [falling, partial curve]"}]}, {"compound": "Cc1occc1-c1nnc(SCC(=O)c2cc3ccccc3oc2=O)o1", "values": [{"measurement": "AC50", "setting": "[1]", "result": "2 µM [falling, full curve]"}]}, {"compound": "CN1CCN(C(c2ccccc2)c2sc3nc(-c4ccco4)nn3c2O)CC1", "note": "(stereo unspecified)", "values": [{"measurement": "AC50", "setting": "[1]", "result": "15.8 µM [rising, partial curve]"}]}, {"compound": "O=C(O)c1cc(N=Nc2ccc([N+](=O)[O-])cc2)ccc1O", "values": [{"measurement": "AC50", "setting": "[1]", "result": "10 µM [falling, partial curve]"}]}, {"compound": "COc1ccc(-c2cc(C(=O)NCc3ccc(Cl)cc3)no2)cc1OC", "values": [{"measurement": "AC50", "setting": "[1]", "result": "5.01 µM [falling, partial curve]"}]}, {"compound": "Cc1cc(Br)ccc1NC(=O)CCS(=O)(=O)c1cccc2nonc12", "values": [{"measurement": "AC50", "setting": "[1]", "result": "25.1 µM [rising, partial curve]"}]}, {"compound": "COc1ccc(Cl)cc1NS(=O)(=O)c1cc(-c2cc(C)no2)ccc1C", "values": [{"measurement": "AC50", "setting": "measured here: IkB-luc green channel", "result": "25.1 µM [rising, single point]"}, {"measurement": "AC50", "setting": "measured here: control luc red channel", "result": "3.98 µM [rising, full curve, poor fit]"}]}, {"compound": "Cc1cc(C)c(Cn2c(C)c(CNCCCc3ccccc3)c(C(=O)O)c2C)c(C)c1", "values": [{"measurement": "AC50", "setting": "[1]", "result": "31.6 µM [falling, single point]"}]}, {"compound": "Cc1ccc(C)c(N2CCN(C(=O)CN3C(=O)COc4ccc(S(=O)(=O)N5CCCCCC5)cc43)CC2)c1", "values": [{"measurement": "AC50", "setting": "[1]", "result": "7.94 µM [falling, partial curve]"}]}, {"compound": "COc1ccc(-c2cc(C(=O)Nc3c(C(=O)c4ccc(Cl)cc4)oc4ccccc34)no2)cc1", "values": [{"measurement": "AC50", "setting": "[1]", "result": "6.31 µM [rising, single point]"}]}]}
